Values joined by “and” are separate entries in the source; they are usually repeats but may differ in a detail not shown here. Equal entries are not always repeated. About 22,000 (6.9%) of roughly 320,000 compounds were called active. The shares of active, inactive and inconclusive entries below differ from those in the screen. Calls follow the shape of the dose curve; as a rule, active = well fitted inhibition curve with a large enough effect; inconclusive = small, poorly fitted or top-dose-only effect, or another doubt; inactive = no such curve, though single readings can be large or run the other way. Potencies beside an inconclusive call are fits to weak or partial responses and may not hold up.
Assay: Primary qHTS for delayed death inhibitors of the malarial parasite plastid, 96 hour incubation
Settings: P. falciparum luciferase reporter growth; series mostly up to 28.7 µM; activity change, negative = inhibition: at the top concentration
Summary of the method: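 Plates of compound plus infected erythrocytes (2% hematocrit, 0.05% parasitemia final) incubate 96 hours, 37 C, 5% CO2. Detection reagent added; reduced luminescence from the parasites' luciferase reporter flags inhibition.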
% is scaled to controls: 0 for no effect and ±100 for the full control effect; potency is read from the fitted curve at half-maximal effect.

Structure (SMILES)	Potency	activity change, negative = inhibition
Cc1cc(C(=O)OCC(=O)c2cccc([N+](=O)[O-])c2)c2ccccc2n1	inconclusive: 18.5 µM [inhibitor, single point]	
N=c1c(C(=O)NC2CCCCC2)cc2c(=O)n3ccccc3nc2n1Cc1cccnc1		inactive: -0.439%
CCOc1ccccc1NC(=O)COC(=O)C1CC(=O)N(c2c(C)cccc2C)C1 (configuration not stated)		inactive: 37.6%
COc1ccc(NC(=O)c2cccc(S(=O)(=O)Nc3ccc(Br)cc3)c2)cn1		inactive: 0%
Cc1ccc(S(=O)(=O)NC(=O)c2ccc(-c3ccc(C)c4ccccc34)o2)cc1		inactive: -4.68%
CN1/C(=C/C2CC(=O)N(c3ccc([N+](=O)[O-])cc3)C2=O)C(C)(C)c2ccccc21 (configuration not stated)	inconclusive: 18.5 µM [inhibitor, single point]	
Cc1nc(N)c(C#N)c(-c2cccnc2)c1C		inactive: -3.79%
CSc1nc(O)c(C2OC(=O)c3ccccc32)c(=O)[nH]1 (configuration not stated)	inconclusive: 11.7 µM [inhibitor, single point]	
CC(=O)Nc1ccc(S(=O)(=O)N2CCC(NC(=O)C(Cc3ccc(C)cc3)NC(C)=O)CC2)cc1 (configuration not stated)		inactive: 26.7%
CC(C)(C)NC(=O)C1CN(S(=O)(=O)c2ccccc2)CCN1S(=O)(=O)c1ccccc1 (configuration not stated)	inconclusive: 16.5 µM [inhibitor, single point]	
O=C(CSc1cccc2cccnc12)N/N=C/c1cccnc1	inconclusive: 0.0033 µM [inhibitor, full curve, poor fit]	
Cc1cc(C)c(OCC(=O)Nc2nc(-c3ccccn3)cs2)c(C)c1	inconclusive: 10.4 µM [inhibitor, single point]	
CSc1ccc(S(=O)(=O)NCc2ccccc2C)cc1	inconclusive: 9.28 µM [inhibitor, partial curve, poor fit]	
CCOc1ccc(C(=O)NCc2ccncc2)cc1	active: 4.15 µM	
COc1ccc(C(=O)c2ccc(Cl)cc2)c2ccccc12	inconclusive: 9.28 µM [inhibitor, single point]	
O=C(N/N=C/c1ccccc1Cl)c1nc2ccc([N+](=O)[O-])cc2c(=O)[nH]1		inactive: 10.7%
Cc1nc(C)n(C)c(=O)c1-c1ccccc1	inconclusive: 2.33 µM [inhibitor, full curve, poor fit]	
COc1cc(-c2nc3cc(C)ccn3c2NC2CCCCC2)ccc1-c1ccc(C(C)=O)cc1	active: 10.4 µM	
Cc1ccc(-c2nc3c(c(=O)[nH]c(=O)n3Cc3ccccc3)n2Cc2ccccc2)o1	inconclusive: 2.08 µM [inhibitor, full curve, poor fit]	
CCOc1ccccc1-n1c(SCC(=O)Nc2ccc(CC)cc2)nc2n[nH]c(C)c2c1=N	inconclusive: 10.4 µM [inhibitor, partial curve, poor fit]	
CC(=O)N(CCC(Cc1ccccc1)c1ccc2c(c1)OCO2)Cc1ccccc1F (configuration not stated)	inconclusive: 8.28 µM [inhibitor, partial curve, poor fit]	
c1ccc(CCC2CCCCN2Cc2cn[nH]c2-c2cc3ccccc3o2)nc1 (configuration not stated)	inconclusive: 14.7 µM [inhibitor, single point]	
COc1ccc(-n2nc3c(c2NC(=O)c2ccc(S(=O)(=O)N4CCOCC4)cc2)CS(=O)C3)cc1 (configuration not stated)	inconclusive: 0.0033 µM [inhibitor, full curve, poor fit]	
CCN(CCO)C(=O)CC1C(=O)NCCN1Cc1c(F)cccc1Cl (configuration not stated)	inconclusive: 18.5 µM [inhibitor, single point]	

Structure (SMILES)	Potency	activity change, negative = inhibition
COc1ccc(OC)c(CCNC(=O)c2ccccc2NC(=O)C2=C(C)OCCS2)c1	inconclusive: 13.1 µM [inhibitor, single point]	
CS(=O)(=O)Oc1ccc(Br)c2cccnc12		inactive: 0%
COc1cccc(CN2CCCC(C(=O)c3ccccc3SC)C2)c1O (configuration not stated)	active: 1.65 µM	
CC(C)(C)c1ccc2c(c1)N(CC(=O)N1CCCC1)C(=O)CO2		inactive: -29.9%
O=C1NC(=O)C2(Cc3cc([N+](=O)[O-])ccc3N3CCN(C(=O)c4ccccc4)CC32)C(=O)N1 (configuration not stated)		inactive: 18%
CCC(/C=N/NC(=O)CCCCC(=O)N/N=C/C(CC)CC)CC		inactive: 12.7%
NC(=O)CSc1ncnc2c1oc1ccccc12		inactive: -0.576%
O=C(c1coc(=O)c(Br)c1)N1CCCc2ccccc21	inconclusive: 18.5 µM [inhibitor, single point]	
CCOc1ccc(NC(=O)CCC(=O)NNC(=O)c2ccccc2Cl)cc1	inconclusive: 18.5 µM [inhibitor, single point]	
CCOc1ccc(N2C(=O)C(c3ccccc3)=C(c3nc4ccccc4s3)C2NC(C)=O)cc1 (configuration not stated)	inconclusive: 14.7 µM [inhibitor, single point]	
Cn1c(SCC(=O)NCC2CCCO2)nnc1-c1ccco1 (configuration not stated)		inactive: -12.4%
CCCOc1ccc(C(C)=O)cc1Cc1c(O)[nH]c(=S)[nH]c1=O	inconclusive: 10.4 µM [inhibitor, single point]	
COc1cc2nc(Nc3ccc(C)c(Cl)c3)nc(N)c2cc1OC		inactive: 41.3%
Cc1ccccc1OCc1n(CC(=O)OC2CC(C)CCC2C(C)C)c2ccccc2[n+]1C (configuration not stated)	inactive and inconclusive: 415 nM [inhibitor, full curve, poor fit]	
CCC(C)[C@H](NC(=O)N1CC(=O)Nc2ccccc21)C(=O)N[C@H](Cc1ccccc1)C(=O)O (some centres not stated)	inconclusive: 11.7 µM [inhibitor, single point]	
Cc1nc2ccccc2cc1C(=O)O		inactive: 10.7%
COc1ccc(-c2sccc2C(C)C(=O)O)cc1 (configuration not stated)		inactive: 11.2%
COc1cc(C(=O)Nc2nc(C)c(Cc3ccc4c(c3)OCO4)s2)cc(OC)c1OC	inconclusive: 10.4 µM [inhibitor, single point]	
CC(C(=O)NC1CC(C)(C)NC(C)(C)C1)c1ccc([N+](=O)[O-])cc1 (configuration not stated)	inconclusive: 4.15 µM [inhibitor, partial curve, poor fit]	
Cc1oc(-c2ccc(F)cc2)cc1-c1nn2c(-c3ccoc3C)nnc2s1	inconclusive: 18.5 µM [inhibitor, single point]	
O=C(CSc1nnc(SCc2cccc3ccccc23)s1)Nc1ccc(C(=O)O)cc1		inactive: 103%
O=C(c1ccc(S(=O)(=O)N2CCCCCC2)cc1)N1CCN(Cc2ccccc2)CC1	inconclusive: 10.4 µM [inhibitor, single point]	
O=C(CN1C(=O)S/C(=C\C=C\c2ccccc2)C1=O)Nc1ccc(O)cc1		inactive: -15.8%
CCn1c(SCc2nc(-c3ccccc3)no2)nc2ccccc21	inconclusive: 11.7 µM [inhibitor, partial curve, poor fit]	

Part of the list above, with each value named:
O=C1NC(=O)C2(Cc3cc([N+](=O)[O-])ccc3N3CCN(C(=O)c4ccccc4)CC32)C(=O)N1 (configuration not stated)
  activity change, negative = inhibition: inactive: 18%
CCC(/C=N/NC(=O)CCCCC(=O)N/N=C/C(CC)CC)CC
  activity change, negative = inhibition: inactive: 12.7%
NC(=O)CSc1ncnc2c1oc1ccccc12
  activity change, negative = inhibition: inactive: -0.576%
O=C(c1coc(=O)c(Br)c1)N1CCCc2ccccc21
  Potency: inconclusive: 18.5 µM [inhibitor, single point]

The results go on:

Structure (SMILES)	Potency	activity change, negative = inhibition
CC(C)(C)NC(=O)Nc1nnc(SCC(=O)NC2CCCCC2)s1	inconclusive: 13.1 µM [inhibitor, single point]	
C[C@H](NC(=O)C1(c2ccccc2)CCN(C(=O)OC(C)(C)C)CC1)C(=O)N[C@@H](C(=O)O)c1ccccc1	inconclusive: 13.1 µM [inhibitor, single point]	
NC(=S)N/N=C1\CCOc2ccc(Cl)cc21	inconclusive: 18.5 µM [inhibitor, single point]	
CCn1c(SCC(=O)c2ccc(O)c(O)c2)nnc1-c1ccc(C)cc1		inactive: -27.9%
COc1cccc(Nc2cc(C)c3ccccc3n2)c1	inconclusive: 11.7 µM [inhibitor, single point]	
O=C(NNC(=O)c1ccc(Cl)nc1)c1ccncc1		inactive: 0.806%
COC(CN1C(=O)C(O)=C(C(C)=O)C1c1ccccn1)OC (configuration not stated)		inactive: -2.4%
NC(=O)C1CCN(c2nc(-c3ccccc3)cs2)CC1	inconclusive: 18.5 µM [activator, single point]	
CCc1ccc(/C(C)=N/NC(=O)c2ccccn2)cc1	inconclusive: 7.38 µM [inhibitor, partial curve, poor fit]	
O=c1oc2ccccc2c(NCCO)c1[N+](=O)[O-]	inconclusive: 5.22 µM [inhibitor, partial curve]	
COc1ccc(CCNC(=O)CCC(=O)N2CCOc3ccc(C)cc32)cc1OC	inconclusive: 0.928 µM [inhibitor, full curve, poor fit]	
CCN(c1cc(C)cc(C)c1)S(=O)(=O)c1nnc(NC(=O)C(C)(C)C)s1		inactive: 26.6%
O[C@@H](CNC[C@H](O)c1ccccc1)c1ccccc1	active: 9.28 µM	
O=C1CN(C(=O)C2CCCC2)CCN1		inactive: 11.1%
Cc1cc(C(=O)CN2C(=O)NC3(CCCCC3)C2=O)c(C)n1-c1ccc2c(c1)OCO2	active: 13.1 µM	
NNC(=S)Nc1c(Br)cc(F)cc1Br		inactive: -1.53%
S=c1[nH]nc(COc2cccc(Cl)c2)n1Cc1ccccc1	inconclusive: 0.522 µM [inhibitor, full curve, poor fit]	
CC(C)c1cc(C(=O)Nc2cccc(C(F)(F)F)c2)no1	inconclusive: 0.0657 µM [inhibitor, full curve, poor fit]	
COc1ccc(C(C)=O)cc1CSc1nc2ccccc2c(=O)n1-c1ccccc1	inconclusive: 11.7 µM [inhibitor, single point]	
CCOC(=O)c1cnc2ccc(C)cc2c1OCc1cc(F)cc(F)c1	inconclusive: 0.0294 µM [inhibitor, full curve, poor fit]	
O=C(NCCCn1ccnc1)c1cc(-c2ccc3c(c2)OCO3)on1	inconclusive: 1.17 µM [inhibitor, full curve]	
Cc1ccc(S[C@@H](CCN2CC[C@H](C)CCC2=O)c2ccccc2)cc1	active: 9.28 µM	
COc1ccc(-c2nnc(SCc3c(C)noc3C)n2N)cc1OC	active: 11.7 µM	
Cc1nc2cc(Cl)ccc2c(=O)n1Cc1ccncc1		inactive: 12.6%

— PubChem BioAssay AID504834 (National Center for Advancing Translational Sciences (NCATS), 2011)
